Test results published in patent US20250042982A1.
Changes are numbered by the printed parent chain. These are yes or no findings as the source states them, for the method shown. Some entries that bind do so weakly or less than the wild type. Values belong to the binder of their own block, whether it stands above or below them.

How the values were obtained:
[1] = target: T1, antigen peptide (human periostin exon 21 with a Cys residue added to the N-terminus) (human); assay: ELISA, hybridoma culture supernatant on plate coated with OVA-conjugated antigen peptide
T1 sequence (peptide, N-terminal Cys conjugated to a carrier protein (ovalbumin in the ELISA)): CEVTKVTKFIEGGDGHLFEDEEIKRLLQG

[2] = target: T2, human periostin exon 21 (human); assay: peptide array of 10-amino-acid peptides of exon 21, Alexa Fluor 647-labeled secondary antibody
T2 sequence (peptide): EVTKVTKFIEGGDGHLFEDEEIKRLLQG

- binding [1]: binds
- binding [2]: binds
B1: Antibody A (antibody, V domains shown)
VH: KVQLVQSGAEVVKPGASVKLSCKASGYTFTEYIIHWVKQASGQGLEWIGWFYPGRGIIKYNEKFKDKATLTADKSISTVYMDLSRLRSEDTAVYFCARHGITTATGAMDYWGQGTLVTVSS
VL: DVVMTQTPLSLSVTLGQPASISCRSSQSLLHSNGNTYLHWYLQKPGQAPKLLIYKVSNRFSGVPDRFSGSGSGTDFTLKISRVEAEDVGVYFCSQSTHVPFTFGQGTKLEIK

- binding [1]: binds
- binding [2]: binds
B2: Antibody D (antibody, V domains shown)
VH: EVQLVESGGGLVKPGGSLRLSCAASGFTFSSYAMSWVRQTPEKRLEWVASINSGGVTTYYPDSVKGRFTISRDNAINILYLQMRSLRSEDTALYYCAAIWDGSSHGYWGQGTLVTVSS
VL: B1 VL with T7S, S12P, L30V, K44R, A48S, K50R, V88F, F101Y, Q105P

- binding [1]: binds
- binding [2]: binds
B3: Antibody B (antibody, V domains shown)
VH: EVQLVESGGGLVKPGGSLRLSCAASGITFSSYAMSWVRQAPGKGLEWVASISSGGSTYYPDSVKGRFTISRDNAKNSLYLQMNSLRAEDTAVYYCVAIWDGSSYGYWGQGTTVTVSS
VL: B1 VL with V2I, L15P, R24K, S26G, L30V, N35K, A48S, K50Q, F92Y

- binding [1]: binds
- binding [2]: binds
B4: Antibody E (antibody, V domains shown)
VH: EVQLVESGGGLVQPGGSLKLSCAASGFTFSDAWMDWVRQAPGKGLEWVAEIRNKANNHATYFTESVKGRFTISRDDSKNTVYLQMNSLRAEDTAVYYCTTATFVYWGQGTLVTVSS
VL: DVVMTQSPLSLPVSLGDRASISCRSSQSLVRNGITYLHWYQQKPGQSPKLLIYKVSNRFSGVPDRFSGSGSGTDFTLKISSVEAEDFGVYYCSQTPHVPYTFGQGTKLEIK

- binding [1]: binds
- binding [2]: binds
B5: Antibody C (antibody, V domains shown)
VH: EVQLVESGGGLVKPGGSLRLSCAASGFIFSSYAMSWVRQPPGKRLEWVASIGSGGTTYYPDSVRGRFTISRDNARNILYLQMRSLRAEDTAVYYCAAIWDGSSHGYWGQGTLLTVSS
VL: DVVMTQSPLSLPVTLGQPASISCRSSQNLVHSNGNTYLHWYLQRPGQSPQLLIYKVSNRFSGVPDRFSGSGSGTDFTLKISRVEAEDLGVYYCSQSTHVPYTFGPGTKLEIK
